Measured values published in the supplement of paper PMC11098740.
The list shows a part of the results. Repeats are few or missing, and single values can be far off.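 Pooled together, 41 HAP1 clones carry intronic fluorescent tags on 61 cancer-associated proteins, and each clone is recognized by its imaging pattern. Measurements are benchmarked against DMSO-treated control wells. dBET6, a BRD4 degrader, served as the positive control.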 Where a SMILES comes first, the peptide text is derived from it. Bridges are numbered along the chain shown (N, C = ends). [ ]: non-standard residue; d: D form. hArg = N=C(N)NCCCC[C@H](N)C(=O)O; Mpa = O=C(O)CCS

The chains behind the UniProt entries cited, without tags or fusion partners.
UniProt O14980, whole entry: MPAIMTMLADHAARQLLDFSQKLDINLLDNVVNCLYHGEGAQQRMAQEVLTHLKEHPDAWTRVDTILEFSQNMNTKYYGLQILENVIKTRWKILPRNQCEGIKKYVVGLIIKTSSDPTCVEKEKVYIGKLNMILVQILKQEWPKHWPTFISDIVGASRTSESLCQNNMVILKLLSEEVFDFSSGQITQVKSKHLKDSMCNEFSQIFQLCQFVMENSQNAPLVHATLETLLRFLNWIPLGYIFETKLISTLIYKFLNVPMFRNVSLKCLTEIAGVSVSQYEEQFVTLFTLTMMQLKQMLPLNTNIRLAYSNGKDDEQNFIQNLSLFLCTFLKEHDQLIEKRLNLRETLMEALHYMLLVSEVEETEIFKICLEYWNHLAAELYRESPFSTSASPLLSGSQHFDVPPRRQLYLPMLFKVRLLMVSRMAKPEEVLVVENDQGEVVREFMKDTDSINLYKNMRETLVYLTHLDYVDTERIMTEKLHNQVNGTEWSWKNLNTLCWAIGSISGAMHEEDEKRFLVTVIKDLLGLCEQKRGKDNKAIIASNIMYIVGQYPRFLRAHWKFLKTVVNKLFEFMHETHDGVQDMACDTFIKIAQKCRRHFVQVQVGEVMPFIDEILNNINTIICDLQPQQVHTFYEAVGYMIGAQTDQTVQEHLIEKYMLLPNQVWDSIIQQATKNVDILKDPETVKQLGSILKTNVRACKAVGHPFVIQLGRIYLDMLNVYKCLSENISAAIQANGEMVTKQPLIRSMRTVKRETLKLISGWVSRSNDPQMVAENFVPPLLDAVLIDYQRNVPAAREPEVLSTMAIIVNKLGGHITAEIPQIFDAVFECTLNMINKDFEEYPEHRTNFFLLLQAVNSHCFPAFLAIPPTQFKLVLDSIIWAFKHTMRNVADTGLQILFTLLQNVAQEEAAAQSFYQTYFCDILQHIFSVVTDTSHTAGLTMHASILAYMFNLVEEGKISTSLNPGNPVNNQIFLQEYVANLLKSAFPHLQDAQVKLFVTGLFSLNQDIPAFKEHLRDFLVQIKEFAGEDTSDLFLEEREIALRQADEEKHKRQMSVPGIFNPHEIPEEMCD

Tests used:
[1] = biological target: XPO1 (intron 15 mScarlet tag, HAP1) (UniProt O14980); assay: XPO1 fluorescence intensity change vs DMSO (log2 fold change); higher = more XPO1 protein; conditions: 6 h
[2] = biological target: BRD4 (intron 10 mScarlet tag, HAP1) (UniProt O60885); assay: BRD4 median nuclear fluorescence intensity change vs DMSO (log2 fold change); higher = more BRD4 protein; conditions: 6 h

SMILES | XPO1 fluorescence intensity change (log2) [1] | BRD4 median nuclear fluorescence intensity change (log2) [2]
CC(O)CNCc1c2ccccc2c(Cl)c2ccccc12 (configuration not stated) (1 µM) | 0.108 | 0.064
COc1ccc(/C=N/Nc2ncnc3sc(C)c(C)c23)c(OC)c1OC (10 µM) | 0.00099 | 0.237
COc1ccc(C(=O)Nc2cccc(/C=C/C(=O)c3ccc(O)c(CCCl)c3)c2)cc1 (10 µM) | -0.746 | 0.0262
Cc1cccc(CSCC(=O)Nc2nc(-c3ccccn3)cs2)c1 (10 µM) | -0.0408 | -0.0261
CC(C)c1ccc2nc(-c3ccccn3)[nH]c(=O)c2c1 (10 µM) | -0.212 | 0.0429
Cc1ccc(NC(=O)C2CC(=O)N(c3cccc(Cl)c3)C2)nc1 (configuration not stated) (10 µM) | 0.196 | 0.00716
Cc1sc2nc(CN3CCCCC3)nc(Sc3nnnn3C3CC3)c2c1C (10 µM) | 0.487 | -0.116
CN(Cc1cnn(Cc2ccccc2)c1)C(=O)c1n[nH]c2ccccc12 (10 µM) | 0.338 | 0.0222
COc1nc(C(=O)Nc2nc3c(s2)CN(C)CC3)cc2ccccc12 (0.1 µM) | -0.0584 | 0.055
C/C(=N\Nc1nc2ccccc2n1C)c1ccc2c(c1)CCC(=O)N2 (10 µM) | -0.033 | -0.0127
O=C(Nc1nc(-c2ccccn2)cs1)c1ccc(Cl)cc1 (0.1 µM) | 0.0191 | 0.111
Nc1nc2c(c(=O)[nH]1)N1C(=O)N(c3ccc(C(=O)N[C@@H](CCC(=O)O)C(=O)O)cc3)CC1CN2 (some centres not stated) (5 µM) | 0.0534 | -0.0571
CCc1ncc(C(=O)Nc2nc(-c3ccccn3)cs2)s1 (10 µM) | -0.139 | 0.107
O=C(NCC(c1cccs1)N1CCOCC1)c1cc(Cl)ccc1F (configuration not stated) (10 µM) | -0.134 | -0.00299
CN1C(=O)C(Cc2c[nH]c3ccccc23)NC1=S (configuration not stated) [necrostatin-1] (1 µM) | 0.0224 | 0.119
O=C(Nc1nc(-c2ccccn2)cs1)c1ccc(S(=O)(=O)N2CCCc3ccccc32)cc1 (10 µM) | -0.0398 | 0.0685
Cc1ccsc1C(=O)N=C(c1ccc(N(C)C)cc1)c1ccc(N(C)C)cc1 (10 µM) | 0.0712 | -0.0458
CCOC(=O)C1=C(CCl)NC(=O)NC1c1ccccc1Cl (configuration not stated) (10 µM) | -0.3 | -0.115

SMILES | XPO1 fluorescence intensity change (log2) [1] | BRD4 median nuclear fluorescence intensity change (log2) [2]
COC[P+](c1ccccc1)(c1ccccc1)c1ccccc1 (10 µM) | 0.0899 | 0.147
O=C(Nc1cccc(CN2CCCC2=O)c1)c1ccc(-c2ccccc2)cc1 (10 µM) | -0.0878 | 0.0736
O=C(NCCc1ccccn1)Nc1ccc(-n2ccnn2)cc1 (10 µM) | 0.151 | -0.0713
COc1ccc(O)c(C(=O)c2cnc3cc4c(cc3c2)OCCO4)c1 (1 µM) | -0.0751 | -0.0402
COC(=O)c1cc(NC(=O)c2cnc3onc(C)c3c2)cc(C)c1C (10 µM) | -0.0233 | 0.0719
COc1cccc(CS(=O)(=O)CCC(=O)Nc2ccc3c(c2)CCC3)c1 (1 µM) | -0.0965 | -0.000781
Cn1cc(CC2CCN(C(=O)NCCOc3cccnc3)C2)cn1 (configuration not stated) (1 µM) | 0.0593 | -0.0717
CCOc1ccccc1NC(=O)c1cccc(NC(=O)c2cccnc2)c1 (10 µM) | -0.038 | 0.0637
CCOC(=O)C1=C(C)N(c2ccc3c(c2)OCCO3)C(=S)NC1c1ccccc1 (configuration not stated) (10 µM) | 0.121 | 0.0534
CC(C)c1ccc(C(Nc2ccccn2)c2ccc3cccnc3c2O)cc1 (configuration not stated) (10 µM) | 0.157 | 0.0666
CS(=O)(=O)NCCc1ccc(-c2csc(COc3ccccc3)n2)s1 (10 µM) | 0.541 | 0.0782
O=C(Nc1nc2ccccc2s1)NC(c1ccccc1)c1ccco1 (configuration not stated) (1 µM) | -0.139 | 0.21
O=C1CSc2ccc(C(=O)N3CCN(c4cccc(C(F)(F)F)c4)CC3)cc2N1 (10 µM) | 0.0579 | 0.0432
OC(CCN1CCCCC1)(c1ccccc1)C1CCCCC1 (configuration not stated) [trihexyphenidyl] (10.00006277 µM) |  | 0.0534
CN1CCC(=C2c3ccccc3CCc3cccnc32)CC1 [azatadine] (17.993 µM) |  | 0.143
N=C(N)NCCCC[C@@H]1NC(=O)CCSSC[C@@H](C(N)=O)NC(=O)[C@@H]2CCCN2C(=O)[C@H](Cc2c[nH]c3ccccc23)NC(=O)[C@H](CC(=O)O)NC(=O)CNC1=O [eptifibatide] (10.00039278 µM) ([Mpa][hArg]GDWPC-NH2; disulfide 1-7) |  | -0.0474
CC12CC3CC(C)(C1)CC(N)(C3)C2 [memantine] (9.99939 µM) |  | 0.0548
Cc1ccsc1C(=CCCN1CCC[C@@H](C(=O)O)C1)c1sccc1C [tiagabine] (11 µM) |  | 0.102

A second format for two compounds above:
SMILES	XPO1 fluorescence intensity change (log2) [1]	BRD4 median nuclear fluorescence intensity change (log2) [2]
O=C1CSc2ccc(C(=O)N3CCN(c4cccc(C(F)(F)F)c4)CC3)cc2N1 (10 µM)	0.0579	0.0432
OC(CCN1CCCCC1)(c1ccccc1)C1CCCCC1 (configuration not stated) [trihexyphenidyl] (10.00006277 µM)		0.0534
